PubChem BioAssay AID504834 (National Center for Advancing Translational Sciences (NCATS), 2011)
In all, about 320,000 compounds went through this assay and about 22,000 (6.9%) were called active. The inconclusive results got no clear call from the source; some entries with a clear call stand among them for comparison. The call rests on the fitted dose curve; in most records, active means well fitted inhibition curve with a large enough effect; inconclusive means small, poorly fitted or top-dose-only effect, or another doubt; inactive means no such curve, though single readings can be large or run the other way. Where the call is inconclusive, the potency comes from a doubtful curve fit.

Assay: Primary qHTS for delayed death inhibitors of the malarial parasite plastid, 96 hour incubation
Settings: P. falciparum luciferase reporter growth; series mostly up to 28.7 µM; activity change, negative = inhibition: at the top concentration
Outline: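 Erythrocytes infected with luciferase-expressing P. falciparum were dispensed at 2% hematocrit and 0.05% parasitemia (final), then incubated with compounds 96 hours at 37 C in 5% CO2. Luminescence after detection reagent addition reported growth.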
On the % scale 0 is the no-effect control and ±100 the full control effect; potency means the concentration at half of the fitted maximal effect.

Row | Structure (SMILES) | activity change, negative = inhibition | Potency
1 | Cc1ccc(F)cc1NC(=O)CSCc1nc2sc(C)c(C)c2c(=O)[nH]1 | inactive: 36.9% | 
2 | CC1CCCC(NC(=O)CCNS(=O)(=O)c2ccc(Br)cc2)C1C (centres undefined) |  | inconclusive: 18.5 µM [inhibitor, single point]
3 | COc1ccc(CNC(=O)C[C@H]2C(=O)N(Cc3ccc(OC)cc3)C[C@@H]2Cc2ccccc2)cc1 |  | inconclusive: 4.15 µM [inhibitor, partial curve]
4 | CC1(C)Cc2c(C#N)c(SCCOc3ccccc3)nc(N3CCOCC3)c2CO1 |  | active: 8.28 µM
5 | Cc1cc(NC(=O)C2CC(=O)N(c3ccccc3Cl)C2)no1 (centres undefined) |  | inconclusive: 5.22 µM [inhibitor, partial curve]
6 | CCc1ccc2[nH]c(=O)c(C(c3nnnn3CC3CCCO3)N3CCN4CCCC4C3)cc2c1 (centres undefined) |  | inconclusive: 14.7 µM [inhibitor, partial curve, poor fit]
7 | O=C(NC(=O)c1ccccc1)C1=C(N2CCCC2)COC1=O | inactive: 295% | 
8 | Cc1ccccc1-c1nn(-c2ccc(F)cc2F)cc1CNCCCN(C)C |  | inconclusive: 14.7 µM [inhibitor, partial curve]
9 | COc1ccccc1-n1c(O)c(C=Nc2c(C)n(C)n(-c3ccccc3)c2=O)c(=O)[nH]c1=O |  | inconclusive: 2.33 µM [inhibitor, partial curve, poor fit]
10 | Cc1cccc2c(-c3ccccc3)cc(=O)[nH]c12 |  | inconclusive: 18.5 µM [inhibitor, single point]
11 | COc1ccc(C2CC(=O)N(C)c3ccccc3S2)cc1OC (centres undefined) |  | inconclusive: 3.29 µM [inhibitor, partial curve, poor fit]
12 | CC(C)C(=O)Nc1ccc(NC(=O)c2ccccc2Cl)nc1 |  | inconclusive: 18.5 µM [inhibitor, single point]
13 | Cc1cc(C(=O)Nn2c(C3CCCCC3)nc3ccccc3c2=O)ccc1[N+](=O)[O-] |  | inconclusive: 14.7 µM [inhibitor, single point]
14 | CCN1CCN(CCCNC(=O)c2ccc(/C=C3/Sc4ccccc4N(Cc4ccccc4F)C3=O)cc2)CC1 |  | inconclusive: 1.04 µM [inhibitor, full curve]
15 | C1=C(CCNc2ncnc3nc[nH]c23)CCCC1 |  | inconclusive: 9.28 µM [inhibitor, partial curve, poor fit]
16 | O=C(CN1C(=O)c2cccc3cccc(c23)C1=O)NCCN1CCOCC1 |  | inconclusive: 3.7 µM [inhibitor, partial curve]
17 | COc1ccc(C(C(=O)NC2CCCC2)N(CCO)C(=O)Cn2nnc(-c3ccc(C)o3)n2)cc1OC (centres undefined) |  | inconclusive: 3.29 µM [inhibitor, full curve]
18 | O=C1CC(N(Cc2cccs2)C(=O)Nc2ccccc2)C(=O)N1c1ccc(Cl)cc1 (centres undefined) |  | inconclusive: 18.5 µM [inhibitor, single point]
19 | CC1=CC(C)(C)N(C(=O)CSc2nnc(C)s2)c2ccc(C)cc21 |  | inconclusive: 18.5 µM [inhibitor, single point]
20 | CCN(CC)CCCOc1ccc(Cl)c(Cl)c1 |  | inconclusive: 18.5 µM [inhibitor, single point]
21 | Cc1cccc(S(=O)(=O)Nc2ccc(-n3c(C)nc4ccccc4c3=O)cc2)c1 | inactive: -14.5% | 
22 | CCOc1ccccc1NC(=O)C(C)CC (centres undefined) | inactive: -2.51% | 
23 | CCC(Cc1ccccc1)NC(=O)C1CCN(S(=O)(=O)c2ccc3c(c2)CC(C)N3C(C)=O)CC1 (centres undefined) |  | inconclusive: 4.15 µM [inhibitor, partial curve, poor fit]

Row | Structure (SMILES) | activity change, negative = inhibition | Potency
24 | CC(C)N1CCC(N2CCN(C/C=C/c3ccccc3)CC2CCO)CC1 (centres undefined) | inactive: 36% | 
25 | COc1cc2c(cc1OC)CN(c1nc(CN3CCCCC3)nc3sc4c(c13)CCCC4)CC2 |  | active: 1.85 µM
26 | Cc1cccc(-c2nnc(SCC(=O)Nc3ncccn3)n2C)c1 | inactive: 3.51% | 
27 | CN(C)C(=O)c1ccc(NC(=O)COC(=O)c2cc(S(=O)(=O)N(C)C)ccc2N2CCCC2)cc1 |  | inconclusive: 14.7 µM [inhibitor, single point]
28 | Cc1[nH]n(-c2ccc([N+](=O)[O-])cc2)c(=O)c1C=NCCN1CCN(C(=O)c2ccc(F)cc2)CC1 |  | inconclusive: 5.22 µM [inhibitor, full curve, poor fit]
29 | O=C(O)[C@H]1CCCC[C@H]1C(=O)Nc1ccc(S(=O)(=O)N2CCOCC2)cc1 |  | inconclusive: 1.85 µM [inhibitor, full curve, poor fit]
30 | COc1ccc(CCOC(=O)CNC(=O)c2ccc(Cl)cc2Cl)cc1 | inactive: -13.4% | 
31 | Cc1ccc(S(=O)(=O)N(C)c2ccccc2C(=O)N2CCCC2)cc1 |  | inconclusive: 18.5 µM [inhibitor, single point]
32 | O=C1C=C(c2ccc(Cl)c(C(F)(F)F)c2)C[C@@H](c2ccc(F)cc2)C1 |  | inconclusive: 14.7 µM [inhibitor, partial curve]
33 | CCN(C(=O)CCc1nnc2ccc(N3CCC4(CC3)OCCO4)nn12)c1ccccc1 |  | inconclusive: 7.38 µM [inhibitor, partial curve]
34 | O=C(CCCOc1ccc(Cl)cc1)Nc1cccc(C(=O)O)c1 |  | inconclusive: 11.7 µM [inhibitor, single point]
35 | CSc1nc(Sc2ccccc2Cl)c2ccccc2n1 | inactive: -15.1% | 
36 | CS/C(=C\[N+](=O)[O-])Nc1ccccc1 | inactive: 2.17% | 
37 | CCc1nc(OCC(=O)c2ccccc2)c(C#N)c2c1COC(C)(C)C2 |  | active: 11.7 µM
38 | FC(F)(F)c1nc2nncn2c2c1CCCCC2 |  | inconclusive: 11.7 µM [inhibitor, single point]
39 | COc1ccc(C2C(C(=O)OCC3CCCO3)=C(C)NC3=C2C(=O)CC(c2ccco2)C3)cc1O (centres undefined) |  | active: 10.4 µM
40 | CCOc1ccc(-n2nnnc2SCC(=O)N2CCOCC2)cc1 | inactive: 24.9% | 
41 | COCCN1CN=C(Nc2nc3ccccc3s2)NC1 | inactive: 18.2% | 
42 | O=C(COC(=O)CCc1ccccc1)Nc1ccccc1OC(F)F | inactive: 39.1% | 
43 | [O]=[Bi][O]C(=O)[O][Bi]=[O] |  | inconclusive: 6.01 µM [inhibitor, partial curve]
44 | CCCCn1nc(C(=O)Nc2nc3c(s2)CCCC3)c2ccccc2c1=O |  | active: 6.57 µM
45 | c1ccc2c(c1)ncn2CCN1CCCCC1 |  | inconclusive: 4.15 µM [inhibitor, full curve, poor fit]
46 | CC1=C(C)CS(=O)N(S(=O)(=O)c2ccccc2)C1 (centres undefined) |  | inconclusive: 18.5 µM [inhibitor, single point]

Of the compounds above, these have two or more sulfur atoms:
Row | Structure (SMILES) | activity change, negative = inhibition | Potency
1 | Cc1ccc(F)cc1NC(=O)CSCc1nc2sc(C)c(C)c2c(=O)[nH]1 | inactive: 36.9% | 
19 | CC1=CC(C)(C)N(C(=O)CSc2nnc(C)s2)c2ccc(C)cc21 |  | inconclusive: 18.5 µM [inhibitor, single point]
35 | CSc1nc(Sc2ccccc2Cl)c2ccccc2n1 | inactive: -15.1% | 
46 | CC1=C(C)CS(=O)N(S(=O)(=O)c2ccccc2)C1 (centres undefined) |  | inconclusive: 18.5 µM [inhibitor, single point]

Reprinted at random: 2 entries already listed.
Row | Structure (SMILES) | activity change, negative = inhibition | Potency
28 | Cc1[nH]n(-c2ccc([N+](=O)[O-])cc2)c(=O)c1C=NCCN1CCN(C(=O)c2ccc(F)cc2)CC1 |  | inconclusive: 5.22 µM [inhibitor, full curve, poor fit]
29 | O=C(O)[C@H]1CCCC[C@H]1C(=O)Nc1ccc(S(=O)(=O)N2CCOCC2)cc1 |  | inconclusive: 1.85 µM [inhibitor, full curve, poor fit]

Continuation.

Row | Structure (SMILES) | activity change, negative = inhibition | Potency
47 | C=CCSc1cc(C)nc2c(-c3ccc(Cl)cc3)c(C)nn12 |  | inconclusive: 9.28 µM [inhibitor, partial curve, poor fit]
48 | COc1ccc(C(=O)Nc2cccc(S(=O)(=O)NC3=NCCCCC3)c2)cc1 |  | inconclusive: 0.0465 µM [inhibitor, full curve, poor fit]
49 | Clc1cccc(N/N=C(\Cc2nc3ccccc3[nH]2)c2ccccc2)c1 |  | active: 4.15 µM
50 | O=Cc1cnc(N2CCOCC2)nc1 |  | inconclusive: 18.5 µM [inhibitor, single point]
51 | NC(=O)c1ccc(Oc2ccc(C(N)=O)cc2)cc1 |  | inconclusive: 9.28 µM [inhibitor, single point]
52 | CSc1ccccc1C(=O)C1CCCN(S(=O)(=O)c2c(C)noc2C)C1 (centres undefined) |  | inconclusive: 6.57 µM [inhibitor, partial curve, poor fit]
53 | CN1CCN(S(=O)(=O)c2cccc(C(=O)Oc3ccc(Br)cc3F)c2)CC1 | inactive: 35.9% | 
54 | COc1ccc(C(=O)Nc2c3c(nn2-c2ccc([N+](=O)[O-])cc2)CS(=O)(=O)C3)cc1 |  | inconclusive: 0.147 µM [inhibitor, partial curve, poor fit]
55 | O=C(c1nc2ncccn2n1)N1CCN(c2ccc(F)cc2)CC1 |  | inconclusive: 16.5 µM [inhibitor, partial curve]
56 | COc1ccc(NC(=O)CN2CCc3ccccc3C2)c(OC)c1 |  | inconclusive: 18.5 µM [inhibitor, single point]
57 | CCOc1ccccc1NC(=O)C(CC)Sc1nc2ccncc2[nH]1 (centres undefined) |  | inconclusive: 18.5 µM [inhibitor, single point]
58 | O=C(Nc1ccc(F)cc1)c1ccccc1CC[N+](=O)[O-] | inactive: -3.07% | 
59 | Cc1nc2nc(C)c(NS(=O)(=O)c3ccc(C(C)(C)C)cc3)c(=O)n2[nH]1 | inactive: 26.3% | 
60 | COc1cccc(NC(=O)CN(C)C(=O)c2cccc(S(=O)(=O)N3CCN(c4ccccc4)CC3)c2)c1 |  | inconclusive: 18.5 µM [inhibitor, partial curve, poor fit]
61 | CCOc1cc(/C=C2\C(=N)N3N=C(S(=O)(=O)CC)SC3=NC2=O)ccc1OC(=O)c1ccco1 | inactive: -7.78% | 
62 | COC1=C(N2CCOCC2)C(=O)c2ccccc2C1=O |  | inconclusive: 18.5 µM [inhibitor, single point]
63 | CC(NC(=O)C1CCC(C(C)(C)C)CC1)C(c1ccccc1)N1CCOCC1 (centres undefined) |  | active: 10.4 µM
64 | Cn1c(SCC(=O)c2ccccc2)nnc1-c1cccnc1 | inactive: 13.9% | 
65 | COc1ccc(CCNC(=O)C2CCN(S(=O)(=O)N3CCC(C)CC3)CC2)cc1OC |  | inconclusive: 18.5 µM [inhibitor, single point]
66 | Cc1onc(C(=O)Nc2c(C)n(C)n(-c3ccccc3)c2=O)c1[N+](=O)[O-] | inactive: -11.9% | 
67 | Cc1cccc(-c2noc(CCC(=O)NCCc3ccccc3)n2)c1 |  | inconclusive: 4.15 µM [inhibitor, single point]
68 | CCOC(=O)c1[nH]c(COC(=O)CCOc2ccccc2OC)c(C(=O)OCC)c1C | inactive: 150% | 
69 | FC(F)(F)c1cccc(Sc2nc(-c3ccccc3)nnc2C(F)(F)F)c1 |  | inconclusive: 10.4 µM [inhibitor, partial curve, poor fit]
